Experimental data reported in PMC12393827.
These are yes or no findings as the source states them, for the method shown. Binding seen in cells or lysates may run through a third protein. A yes stands for co-enrichment or nearness to the bait. Other partners may have been found. No binding means not detected with the bait.

The chains behind the UniProt entries cited, without tags or fusion partners. Residues count along the entry.
UniProt Q13136: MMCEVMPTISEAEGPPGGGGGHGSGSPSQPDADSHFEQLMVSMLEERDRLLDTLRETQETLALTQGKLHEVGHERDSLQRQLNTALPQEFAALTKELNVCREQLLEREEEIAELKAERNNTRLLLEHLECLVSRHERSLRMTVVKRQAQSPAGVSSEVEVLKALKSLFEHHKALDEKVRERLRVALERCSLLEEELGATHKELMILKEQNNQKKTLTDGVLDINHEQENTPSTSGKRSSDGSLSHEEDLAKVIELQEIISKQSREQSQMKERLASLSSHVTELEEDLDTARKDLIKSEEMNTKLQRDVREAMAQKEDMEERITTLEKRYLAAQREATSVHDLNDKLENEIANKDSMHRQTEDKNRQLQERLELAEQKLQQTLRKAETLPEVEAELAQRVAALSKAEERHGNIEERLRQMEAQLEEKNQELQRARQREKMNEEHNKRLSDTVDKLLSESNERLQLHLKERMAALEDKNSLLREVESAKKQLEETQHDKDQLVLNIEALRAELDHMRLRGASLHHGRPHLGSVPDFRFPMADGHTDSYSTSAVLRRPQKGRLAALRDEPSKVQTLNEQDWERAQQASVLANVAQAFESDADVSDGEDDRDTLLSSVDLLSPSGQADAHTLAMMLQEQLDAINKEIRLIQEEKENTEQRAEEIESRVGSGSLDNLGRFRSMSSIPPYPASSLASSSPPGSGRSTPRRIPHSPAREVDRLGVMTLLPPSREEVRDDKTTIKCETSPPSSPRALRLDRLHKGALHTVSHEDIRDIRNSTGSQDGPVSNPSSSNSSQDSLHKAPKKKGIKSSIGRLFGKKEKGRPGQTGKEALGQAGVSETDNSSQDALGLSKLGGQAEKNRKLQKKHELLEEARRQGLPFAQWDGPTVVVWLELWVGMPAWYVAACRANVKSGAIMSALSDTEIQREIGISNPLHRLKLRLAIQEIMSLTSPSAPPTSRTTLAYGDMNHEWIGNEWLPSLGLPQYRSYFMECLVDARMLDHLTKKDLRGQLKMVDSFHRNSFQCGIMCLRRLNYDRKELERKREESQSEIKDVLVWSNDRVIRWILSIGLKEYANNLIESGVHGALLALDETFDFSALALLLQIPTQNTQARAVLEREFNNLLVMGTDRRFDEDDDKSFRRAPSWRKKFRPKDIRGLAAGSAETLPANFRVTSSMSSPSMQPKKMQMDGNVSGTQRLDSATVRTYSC
UniProt B2RXQ2: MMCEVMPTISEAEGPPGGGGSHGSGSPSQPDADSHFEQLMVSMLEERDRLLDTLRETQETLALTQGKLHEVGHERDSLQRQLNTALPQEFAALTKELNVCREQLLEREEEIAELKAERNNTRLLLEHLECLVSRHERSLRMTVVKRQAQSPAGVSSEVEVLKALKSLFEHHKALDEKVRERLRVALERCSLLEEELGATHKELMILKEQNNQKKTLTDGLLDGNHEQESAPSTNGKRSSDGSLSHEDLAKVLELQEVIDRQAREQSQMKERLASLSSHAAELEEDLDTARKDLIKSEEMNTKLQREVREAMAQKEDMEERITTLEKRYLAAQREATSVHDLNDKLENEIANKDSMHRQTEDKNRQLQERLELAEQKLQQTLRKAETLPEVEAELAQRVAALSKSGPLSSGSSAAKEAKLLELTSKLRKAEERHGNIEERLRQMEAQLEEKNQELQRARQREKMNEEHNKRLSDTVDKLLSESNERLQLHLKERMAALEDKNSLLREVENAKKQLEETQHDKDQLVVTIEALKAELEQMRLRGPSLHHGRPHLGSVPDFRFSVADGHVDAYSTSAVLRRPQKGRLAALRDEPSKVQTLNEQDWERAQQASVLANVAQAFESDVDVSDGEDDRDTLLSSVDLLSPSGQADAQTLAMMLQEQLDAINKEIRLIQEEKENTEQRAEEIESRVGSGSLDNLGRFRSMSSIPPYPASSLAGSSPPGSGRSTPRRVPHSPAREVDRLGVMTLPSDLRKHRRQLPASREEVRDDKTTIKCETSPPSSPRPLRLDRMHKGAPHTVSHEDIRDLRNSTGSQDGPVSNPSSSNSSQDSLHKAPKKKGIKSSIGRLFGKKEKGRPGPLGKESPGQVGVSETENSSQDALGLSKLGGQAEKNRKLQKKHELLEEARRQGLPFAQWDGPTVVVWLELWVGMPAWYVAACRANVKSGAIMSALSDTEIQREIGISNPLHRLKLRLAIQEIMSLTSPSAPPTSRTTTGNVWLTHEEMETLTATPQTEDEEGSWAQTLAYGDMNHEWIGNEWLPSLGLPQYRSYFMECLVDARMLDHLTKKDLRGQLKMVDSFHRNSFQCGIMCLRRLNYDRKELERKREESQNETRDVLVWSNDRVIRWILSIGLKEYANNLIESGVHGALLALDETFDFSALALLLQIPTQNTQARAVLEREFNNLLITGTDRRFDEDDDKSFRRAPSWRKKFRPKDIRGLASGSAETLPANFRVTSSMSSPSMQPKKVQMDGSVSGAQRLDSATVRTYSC
UniProt A2A8L5, residues 30-1898: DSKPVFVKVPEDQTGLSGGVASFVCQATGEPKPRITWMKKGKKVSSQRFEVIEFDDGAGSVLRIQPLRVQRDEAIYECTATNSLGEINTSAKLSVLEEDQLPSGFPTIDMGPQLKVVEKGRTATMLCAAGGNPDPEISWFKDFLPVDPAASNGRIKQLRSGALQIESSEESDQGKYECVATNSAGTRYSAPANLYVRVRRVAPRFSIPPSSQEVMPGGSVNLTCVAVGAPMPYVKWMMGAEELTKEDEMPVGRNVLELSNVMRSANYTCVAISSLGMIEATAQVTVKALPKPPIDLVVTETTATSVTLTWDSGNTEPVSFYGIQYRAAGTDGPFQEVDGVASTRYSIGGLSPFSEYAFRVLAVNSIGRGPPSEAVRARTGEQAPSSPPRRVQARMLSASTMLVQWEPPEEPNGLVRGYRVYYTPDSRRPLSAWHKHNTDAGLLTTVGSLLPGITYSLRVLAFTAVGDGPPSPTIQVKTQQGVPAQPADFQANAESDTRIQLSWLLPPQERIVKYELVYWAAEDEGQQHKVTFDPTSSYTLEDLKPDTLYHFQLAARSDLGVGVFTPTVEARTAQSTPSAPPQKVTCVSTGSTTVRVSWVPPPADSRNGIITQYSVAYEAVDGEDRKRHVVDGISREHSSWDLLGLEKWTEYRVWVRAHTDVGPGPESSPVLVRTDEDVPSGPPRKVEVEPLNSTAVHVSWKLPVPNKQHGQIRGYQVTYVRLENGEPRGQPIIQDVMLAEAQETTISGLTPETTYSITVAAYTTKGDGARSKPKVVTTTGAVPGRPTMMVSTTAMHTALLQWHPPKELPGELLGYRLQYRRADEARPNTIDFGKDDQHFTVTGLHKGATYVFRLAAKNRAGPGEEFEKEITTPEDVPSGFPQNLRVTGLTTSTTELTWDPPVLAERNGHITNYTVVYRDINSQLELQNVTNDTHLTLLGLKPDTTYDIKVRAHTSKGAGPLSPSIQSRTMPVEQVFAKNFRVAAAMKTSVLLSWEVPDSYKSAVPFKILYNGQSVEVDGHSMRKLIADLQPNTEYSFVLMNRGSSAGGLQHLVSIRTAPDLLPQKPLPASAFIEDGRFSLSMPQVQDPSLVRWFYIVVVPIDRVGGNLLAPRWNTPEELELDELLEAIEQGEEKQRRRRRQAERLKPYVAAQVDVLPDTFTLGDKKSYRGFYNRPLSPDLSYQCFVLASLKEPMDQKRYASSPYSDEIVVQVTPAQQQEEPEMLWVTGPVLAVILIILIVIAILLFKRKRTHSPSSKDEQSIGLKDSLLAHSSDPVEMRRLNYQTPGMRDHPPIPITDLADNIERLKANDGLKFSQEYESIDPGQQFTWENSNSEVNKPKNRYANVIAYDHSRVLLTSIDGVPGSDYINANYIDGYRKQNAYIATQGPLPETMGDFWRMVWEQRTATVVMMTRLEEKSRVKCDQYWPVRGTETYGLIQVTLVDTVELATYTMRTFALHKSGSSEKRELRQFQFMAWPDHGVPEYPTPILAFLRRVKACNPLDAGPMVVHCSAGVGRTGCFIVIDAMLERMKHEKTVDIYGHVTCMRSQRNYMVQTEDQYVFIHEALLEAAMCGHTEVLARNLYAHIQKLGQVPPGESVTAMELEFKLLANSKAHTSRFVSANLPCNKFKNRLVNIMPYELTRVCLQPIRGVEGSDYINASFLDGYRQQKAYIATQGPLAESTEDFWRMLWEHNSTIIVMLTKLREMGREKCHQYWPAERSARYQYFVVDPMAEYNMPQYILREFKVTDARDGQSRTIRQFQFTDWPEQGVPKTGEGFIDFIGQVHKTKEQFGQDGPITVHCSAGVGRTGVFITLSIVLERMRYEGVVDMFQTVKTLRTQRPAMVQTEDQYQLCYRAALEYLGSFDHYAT
UniProt Q8BSS9: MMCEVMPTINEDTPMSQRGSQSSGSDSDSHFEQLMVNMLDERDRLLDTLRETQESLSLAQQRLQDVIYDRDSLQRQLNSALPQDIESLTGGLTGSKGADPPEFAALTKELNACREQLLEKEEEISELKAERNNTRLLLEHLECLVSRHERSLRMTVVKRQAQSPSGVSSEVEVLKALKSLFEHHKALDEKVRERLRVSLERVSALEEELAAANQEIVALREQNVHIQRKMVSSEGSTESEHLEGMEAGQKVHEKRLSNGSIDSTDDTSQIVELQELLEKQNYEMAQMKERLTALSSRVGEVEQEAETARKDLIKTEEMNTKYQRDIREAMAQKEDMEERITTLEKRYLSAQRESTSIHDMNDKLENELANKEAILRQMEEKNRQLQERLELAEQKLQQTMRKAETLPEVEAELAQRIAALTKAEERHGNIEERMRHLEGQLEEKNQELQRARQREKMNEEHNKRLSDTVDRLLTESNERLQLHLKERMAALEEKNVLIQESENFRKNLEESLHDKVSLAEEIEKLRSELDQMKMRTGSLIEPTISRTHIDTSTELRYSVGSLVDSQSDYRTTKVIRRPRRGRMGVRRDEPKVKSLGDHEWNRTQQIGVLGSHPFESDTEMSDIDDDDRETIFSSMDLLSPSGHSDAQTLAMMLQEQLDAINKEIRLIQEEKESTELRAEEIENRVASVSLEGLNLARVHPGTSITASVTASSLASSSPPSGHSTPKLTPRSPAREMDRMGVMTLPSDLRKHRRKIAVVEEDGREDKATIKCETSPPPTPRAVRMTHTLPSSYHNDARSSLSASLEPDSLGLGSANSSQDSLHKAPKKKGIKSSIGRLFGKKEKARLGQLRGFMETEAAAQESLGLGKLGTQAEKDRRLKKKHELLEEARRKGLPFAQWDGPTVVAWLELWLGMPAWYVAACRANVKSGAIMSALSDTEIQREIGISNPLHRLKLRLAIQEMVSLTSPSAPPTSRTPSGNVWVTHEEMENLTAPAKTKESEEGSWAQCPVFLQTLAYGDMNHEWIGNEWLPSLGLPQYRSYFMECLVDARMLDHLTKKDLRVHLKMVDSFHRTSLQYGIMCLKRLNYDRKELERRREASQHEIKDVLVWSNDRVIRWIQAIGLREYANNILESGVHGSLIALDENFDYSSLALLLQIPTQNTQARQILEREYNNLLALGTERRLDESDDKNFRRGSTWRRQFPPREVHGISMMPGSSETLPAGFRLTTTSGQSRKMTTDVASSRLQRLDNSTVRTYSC

B1: GIT1 (protein, UniProt Q68FF6 1-770)
chain: MSRKGPRAEVCADCSAPDPGWASISRGVLVCDECCSVHRSLGRHISIVKHLRHSAWPPTLLQMVHTLASNGANSIWEHSLLDPAQVQSGRRKANPQDKVHPIKSEFIRAKYQMLAFVHKLPCRDDDGVTAKDLSKQLHSSVRTGNLETCLRLLSLGAQANFFHPEKGTTPLHVAAKAGQTLQAELLVVYGADPGSPDVNGRTPIDYARQAGHHELAERLVECQYELTDRLAFYLCGRKPDHKNGHYIIPQMADRSRQKCMSQSLDLSELAKAAKKKLQALSNRLFEELAMDVYDEVDRRENDAVWLATQNHSTLVTERSAVPFLPVNPEYSATRNQGRQKLARFNAREFATLIIDILSEAKRRQQGKSLSSPTDNLELSARSQSELDDQHDYDSVASDEDTDQEPLPSAGATRNNRARSMDSSDLSDGAVTLQEYLELKKALATSEAKVQQLMKVNSSLSDELRRLQREIHKLQAENLQLRQPPGPVPPPSLPSERAEHTLMGPGGSTHRRDRQAFSMYEPGSALKPFGGTPGDELATRLQPFHSTELEDDAIYSVHVPAGLYRIRKGVSASSVPFTPSSPLLSCSQEGSRHASKLSRHGSGADSDYENTQSGDPLLGLEGKRFLELSKEDELHPELESLDGDLDPGLPSTEDVILKTEQVTKNIQELLRAAQEFKHDSFVPCSEKIHLAVTEMASLFPKRPALEPVRSSLRLLNASAYRLQSECRKTVPPEPGAPVDFQLLTQQVIQCAYDIAKAAKQLVTITTREKKQ
B2: liprin-β1 (protein, UniProt Q8C8U0 1-969)
chain: MMSDASDMLAAALEQMDGIIAGSKALEYSNGIFDCQSPTSPFMGSLRALHLVEDLRGLLEMMETDEKEGLRCQIPDSTAEVLIEWLQNQMTNGHLPGNGDVYQERLARLENDKESLVLQVSVLTDQVEAQGEKIRDLEFCLEEHREKLNATEEMLQQELLSRTSLETQKLELMAEISNLKLKLTAVEKDRLDYEDRFRDTEGLIQEINDLRLKVNEMDGERLQYEKKLKSTKDELASLKEQLEEKECEVKRLQERLVCKAKGEGIEVLDRDIEVQKMKKAVESLMAANEEKERKIEDLRQCLSRYRKMQDPAVLAQGQDSECEGLFHSSSISTLLDAQGFSDLERSTSSTPGMGSPSRDLLHTSAPEEFHTSVLQASIPSLLPPSVDVDTCEKPKLPTKPETSFEEGDGRAILGAAAEVSLSDGVSTSSLQKSSSLGNLKKEASDGTDKAPTDSRTFGTLPPKVPGHEASVDDNPFGTRKARSSFGRGFFKIKSGKRTASAPNLAETEKETAEHLNLAGTSRSKGSQGTSPFPMSPPSPDSRKKSRGIMRLFGKLRRSQSTTFNPDDMSEPEFKRGGTRATAGPRLGWSRDLGQSNSDLDMPFAKWTKEQVCSWLAEQGLGSYLSSGKHWIISGQTLLQASQQDLEKELGIKHSLHRKKLQLALQALGSEEETNYGKLDFNWVTRWLDDIGLPQYKTQFDEGRVDGRMLHYMTVDDLLSLKVVSVLHHLSIKRAIQVLRINNFEPNCLRRRPSDENSITPSEVQQWTNHRVMEWLRSVDLAEYAPNLRGSGVHGGLMVLEPRFNVETMAQLLNIPPNKTLLRRHLATHFNLLIGAEAQHQKRDAMELPDYVLLTATAKVKPKKLTFSNFGNLRKKKHEDGEEYVCPMELGQASGSSQKGFRPGLDMRLYEEDDLDRLEQMEDSEGTVRQIGAFSEGINNLTHMLKEDDMFKDFAARSPSASITDEDSNV
B3: ELKS (protein, UniProt Q99MI1 1-1120)
chain: MYGSARSVGKVEPSSQSPGRSPRLPRSPRLGHRRTNSTGGSSGNSVGGGSGKTLSMENIQSLNAAYATSGPMYLSDHENVGAETPKSTMTLGRSGGRLPYGVRMTAMGSSPNIASSGVASDTIAFGEHHLPPVSMASTVPHSLRQARDNTIMDLQTQLKEVLRENDLLRKDVEVKESKLSSSMNSIKTFWSPELKKERALRKDEASKITIWKEQYRVVQEENQHMQMTIQALQDELRIQRDLNQLFQQDSSSRTGEPCVAELTEENFQRLHAEHERQAKELFLLRKTLEEMELRIETQKQTLNARDESIKKLLEMLQSKGLSAKATEEDHERTRRLAEAEMHVHHLESLLEQKEKENNMLREEMHRRFENAPDSAKTKALQTVIEMKDSKISSMERGLRDLEEEIQMLKSNGALSSEEREEEMKQMEVYRSHSKFMKNKVEQLKEELSSKDAQGEELKKRAAGLQSEIGQVKQELSRKDTELLALQTKLETLTNQFSDSKQHIEVLKESLTAKEQRAAILQTEVDALRLRLEEKETMLNKKTKQIQDMAEEKGTQAGEIHDLKDMLDVKERKVNVLQKKIENLQEQLRDKEKQMSSLKERVKSLQADTTNTDTALTTLEEALADKERTIERLKEQRDRDEREKQEEIDTYKKDLKDLREKVSLLQGDLSEKEASLLDIKEHASSLASSGLKKDSRLKTLEIALEQKKEECLKMESQLKKAHEATLEARASPEMSDRIQQLEREISRYKDESSKAQTEVDRLLEILKEVENEKNDKDKKIAELESLTSRQVKDQNKKVANLKHKEQVEKKKSAQMLEEARRREDSLSDSSQQLQDSLRKKDDRIEELEEALRESVQITAEREMVLAQEESARTNAEKQVEELLMAMEKVKQELESMKAKLSSTQQSLAEKETHLTNLRAERRKHLEEVLEMKQEALLAAISEKDANIALLELSSSKKKTQEEVAALKREKDRLVQQLKQQTQNRMKLMADNYEDDHFRSSRSNQTNHKPSPDQIIQPLLELDQNRSKLKLYIGHLTALCHDRDPLILRGLTPPASYNADGEQAAWENELQQMTQEQLQNELEKVEGDNAELQEFANTILQQIADHCPDILEQVVNALEESS

What follows are molecules tested against GFP–liprin-α1 (not stated (human or mouse cDNA cloned)) (UniProt Q13136) (assay: affinity purification with mass spectrometry; lysates of MIN6 cells expressing GFP–liprin-α1 or GFP (control), after 2.8 mM or 16.7 mM glucose KRBH for 2 h (results pooled); GFP-Trap agarose beads, 4°C, 1 h; lysis buffer 1% NP40, 10% glycerol, 137 mM NaCl, 25 mM Tris pH 7.4; DIA proteomics, DIA-NN, SAINTexpress, Bayesian FDR <0.05).
“endogenous liprin-α1 (from UniProt B2RXQ2 1-1266)” was tested, and the binding was “binds”.
In the case of “PTPRF (LAR) (from UniProt A2A8L5 30-1898) (receptor)”, the binding is reported as “binds”.
For liprin-α2 (from UniProt Q8BSS9 1-1257), the binding was “binds”.
In the case of B1, the binding is reported as “binds”.
In the case of B2, the binding is reported as “binds”.
B3 was tested, and the binding was “no binding”.
